Data published in patent publication US9469650B2, “Melampomagnolide B derivatives” (BOARD OF TRUSTEES OF THE UNIVERSITY OF ARKANSAS, priority 2013, dated 2016).
At least one read-out could not be matched to a standard name with certainty.

What was measured:
[1] = system: LOX IMVI; experiment: panel of 60 human tumor cell lines, growth inhibition (Melanoma)
[2] = system: M14; experiment: as above
[3] = system: SK-MEL-2; experiment: as above
[4] = system: SK-MEL-28; experiment: as above
[5] = system: SF-295; experiment: panel of 60 human tumor cell lines, growth inhibition (CNS Cancer)
[6] = system: SNB-75; experiment: as above
[7] = system: COLO 205; experiment: panel of 60 human tumor cell lines, growth inhibition (Colon Cancer)
[8] = system: HCC-2998; experiment: as above
[9] = system: HCT-116; experiment: as above
[10] = system: 786-0; experiment: panel of 60 human tumor cell lines, growth inhibition (Renal Cancer)
[11] = system: A498; experiment: as above
[12] = system: RXF 393; experiment: as above
[13] = system: SN12C; experiment: as above
[14] = system: TK-10; experiment: as above
[15] = system: HS 578T; experiment: panel of 60 human tumor cell lines, growth inhibition (Breast Cancer); conditions: HS 578T
[16] = system: T-47D; experiment: as above
[17] = system: MDA-MB-468; experiment: as above
[18] = system: OVCAR-5; experiment: panel of 60 human tumor cell lines, growth inhibition (Ovarian Cancer)
[19] = system: A549/ATCC; experiment: panel of 60 human tumor cell lines, growth inhibition (Non-Small Cell Lung Cancer)
[20] = system: HOP-62; experiment: as above
[21] = system: NCI-H322M; experiment: as above

## C=C1C(=O)O[C@H]2[C@H]1CC/C(COC(=O)NCCN1CCCC1)=C\CC[C@@]1(C)O[C@@H]21 [JVM 59, ((1aR,7aS,10aS,10bS,E)-1a-methyl-8-methylene-9-oxo-1a,2,3,6,7,7a,8,9,10a,10b-decahydrooxireno[2′,3′:9,10]cyclodeca[1,2-b]furan-5-yl)methyl-(2-(pyrrolidin-1-yl)ethyl)carbamate]
[1]; Log10 Concentration −4.0
  Percent Growth: −76%
[1]; Log10 Concentration −5.0
  Percent Growth: 45%
[1]; Log10 Concentration −6.0
  Percent Growth: 96%
[1]; Log10 Concentration −7.0
  Percent Growth: 93%
[1]; Log10 Concentration −8.0
  Percent Growth: 95%
[2]; Log10 Concentration −4.0
  Percent Growth: −81%
[2]; Log10 Concentration −5.0
  Percent Growth: 49%
[2]; Log10 Concentration −6.0
  Percent Growth: 90%
[2]; Log10 Concentration −7.0
  Percent Growth: 92%
[2]; Log10 Concentration −8.0
  Percent Growth: 94%
[3]; Log10 Concentration −4.0
  Percent Growth: −81%
[3]; Log10 Concentration −5.0
  Percent Growth: 72%
[3]; Log10 Concentration −6.0
  Percent Growth: 105%
[3]; Log10 Concentration −7.0
  Percent Growth: 96%
[3]; Log10 Concentration −8.0
  Percent Growth: 99%
[4]; Log10 Concentration −4.0
  Percent Growth: −95%
[4]; Log10 Concentration −5.0
  Percent Growth: 64%
[4]; Log10 Concentration −6.0
  Percent Growth: 99%
[4]; Log10 Concentration −7.0
  Percent Growth: 104%
[4]; Log10 Concentration −8.0
  Percent Growth: 99%
[5]; Log10 Concentration −4.0
  Percent Growth: 31%
[5]; Log10 Concentration −5.0
  Percent Growth: 92%
[5]; Log10 Concentration −6.0
  Percent Growth: 96%
[5]; Log10 Concentration −7.0
  Percent Growth: 95%
[5]; Log10 Concentration −8.0
  Percent Growth: 96%
[6]; Log10 Concentration −4.0
  Percent Growth: −8%
[6]; Log10 Concentration −5.0
  Percent Growth: 70%
[6]; Log10 Concentration −6.0
  Percent Growth: 82%
[6]; Log10 Concentration −7.0
  Percent Growth: 93%
[6]; Log10 Concentration −8.0
  Percent Growth: 80%
[7]; Log10 Concentration −4.0
  Percent Growth: −90%
[7]; Log10 Concentration −5.0
  Percent Growth: 26%
[7]; Log10 Concentration −6.0
  Percent Growth: 100%
[7]; Log10 Concentration −7.0
  Percent Growth: 99%
[7]; Log10 Concentration −8.0
  Percent Growth: 98%
[8]; Log10 Concentration −4.0
  Percent Growth: −81%
[8]; Log10 Concentration −5.0
  Percent Growth: 102%
[8]; Log10 Concentration −6.0
  Percent Growth: 106%
[8]; Log10 Concentration −7.0
  Percent Growth: 97%
[8]; Log10 Concentration −8.0
  Percent Growth: 93%
[9]; Log10 Concentration −4.0
  Percent Growth: −94%
[9]; Log10 Concentration −5.0
  Percent Growth: 11%
[9]; Log10 Concentration −6.0
  Percent Growth: 90%
[9]; Log10 Concentration −7.0
  Percent Growth: 94%
[9]; Log10 Concentration −8.0
  Percent Growth: 92%
[10]; Log10 Concentration −4.0
  Percent Growth: −86%
[10]; Log10 Concentration −5.0
  Percent Growth: 76%
[10]; Log10 Concentration −6.0
  Percent Growth: 34%
[10]; Log10 Concentration −7.0
  Percent Growth: 96%
[10]; Log10 Concentration −8.0
  Percent Growth: 96%
[11]; Log10 Concentration −4.0
  Percent Growth: −53%
[11]; Log10 Concentration −5.0
  Percent Growth: 96%
[11]; Log10 Concentration −6.0
  Percent Growth: 88%
[11]; Log10 Concentration −7.0
  Percent Growth: 96%
[11]; Log10 Concentration −8.0
  Percent Growth: 102%
[12]; Log10 Concentration −4.0
  Percent Growth: −85%
[12]; Log10 Concentration −5.0
  Percent Growth: 25%
[12]; Log10 Concentration −6.0
  Percent Growth: 90%
[12]; Log10 Concentration −7.0
  Percent Growth: 87%
[12]; Log10 Concentration −8.0
  Percent Growth: 91%
[13]; Log10 Concentration −4.0
  Percent Growth: −60%
[13]; Log10 Concentration −5.0
  Percent Growth: 86%
[13]; Log10 Concentration −6.0
  Percent Growth: 100%
[13]; Log10 Concentration −7.0
  Percent Growth: 98%
[13]; Log10 Concentration −8.0
  Percent Growth: 100%
[14]; Log10 Concentration −4.0
  Percent Growth: −94%
[14]; Log10 Concentration −5.0
  Percent Growth: 17%
[14]; Log10 Concentration −6.0
  Percent Growth: 82%
[14]; Log10 Concentration −7.0
  Percent Growth: 85%
[14]; Log10 Concentration −8.0
  Percent Growth: 93%
[15]; Log10 Concentration −4.0
  Percent Growth: −15%
[15]; Log10 Concentration −5.0
  Percent Growth: 77%
[15]; Log10 Concentration −6.0
  Percent Growth: 97%
[15]; Log10 Concentration −7.0
  Percent Growth: 96%
[15]; Log10 Concentration −8.0
  Percent Growth: 94%
[16]; Log10 Concentration −4.0
  Percent Growth: −69%
[16]; Log10 Concentration −5.0
  Percent Growth: 27%
[16]; Log10 Concentration −6.0
  Percent Growth: 100%
[16]; Log10 Concentration −7.0
  Percent Growth: 96%
[16]; Log10 Concentration −8.0
  Percent Growth: 97%
[17]; Log10 Concentration −4.0
  Percent Growth: −77%
[17]; Log10 Concentration −5.0
  Percent Growth: −4%
[17]; Log10 Concentration −6.0
  Percent Growth: 80%
[17]; Log10 Concentration −7.0
  Percent Growth: 84%
[17]; Log10 Concentration −8.0
  Percent Growth: 95%
[18]; Log10 Concentration −4.0
  Percent Growth: −85%
[18]; Log10 Concentration −5.0
  Percent Growth: 70%
[18]; Log10 Concentration −6.0
  Percent Growth: 89%
[18]; Log10 Concentration −8.0
  Percent Growth: 94%
[19]; Log10 Concentration −4.0
  Percent Growth: −1%
[19]; Log10 Concentration −5.0
  Percent Growth: 91%
[19]; Log10 Concentration −6.0
  Percent Growth: 91%
[19]; Log10 Concentration −7.0
  Percent Growth: 99%
[19]; Log10 Concentration −8.0
  Percent Growth: 99%
[20]; Log10 Concentration −4.0
  Percent Growth: −88%
[20]; Log10 Concentration −5.0
  Percent Growth: 97%
[20]; Log10 Concentration −6.0
  Percent Growth: 91%
[20]; Log10 Concentration −7.0
  Percent Growth: 89%
[20]; Log10 Concentration −8.0
  Percent Growth: 88%
[21]; Log10 Concentration −4.0
  Percent Growth: 43%
[21]; Log10 Concentration −5.0
  Percent Growth: 96%
[21]; Log10 Concentration −6.0
  Percent Growth: 103%
[21]; Log10 Concentration −7.0
  Percent Growth: 100%
[21]; Log10 Concentration −8.0
  Percent Growth: 94%
